The source of these data is publication doi:10.1101/2024.09.20.614208.

Protein sequences, listed by entry. Tags and fused reporters are not part of them.
UniProt Q9UQ35, whole entry: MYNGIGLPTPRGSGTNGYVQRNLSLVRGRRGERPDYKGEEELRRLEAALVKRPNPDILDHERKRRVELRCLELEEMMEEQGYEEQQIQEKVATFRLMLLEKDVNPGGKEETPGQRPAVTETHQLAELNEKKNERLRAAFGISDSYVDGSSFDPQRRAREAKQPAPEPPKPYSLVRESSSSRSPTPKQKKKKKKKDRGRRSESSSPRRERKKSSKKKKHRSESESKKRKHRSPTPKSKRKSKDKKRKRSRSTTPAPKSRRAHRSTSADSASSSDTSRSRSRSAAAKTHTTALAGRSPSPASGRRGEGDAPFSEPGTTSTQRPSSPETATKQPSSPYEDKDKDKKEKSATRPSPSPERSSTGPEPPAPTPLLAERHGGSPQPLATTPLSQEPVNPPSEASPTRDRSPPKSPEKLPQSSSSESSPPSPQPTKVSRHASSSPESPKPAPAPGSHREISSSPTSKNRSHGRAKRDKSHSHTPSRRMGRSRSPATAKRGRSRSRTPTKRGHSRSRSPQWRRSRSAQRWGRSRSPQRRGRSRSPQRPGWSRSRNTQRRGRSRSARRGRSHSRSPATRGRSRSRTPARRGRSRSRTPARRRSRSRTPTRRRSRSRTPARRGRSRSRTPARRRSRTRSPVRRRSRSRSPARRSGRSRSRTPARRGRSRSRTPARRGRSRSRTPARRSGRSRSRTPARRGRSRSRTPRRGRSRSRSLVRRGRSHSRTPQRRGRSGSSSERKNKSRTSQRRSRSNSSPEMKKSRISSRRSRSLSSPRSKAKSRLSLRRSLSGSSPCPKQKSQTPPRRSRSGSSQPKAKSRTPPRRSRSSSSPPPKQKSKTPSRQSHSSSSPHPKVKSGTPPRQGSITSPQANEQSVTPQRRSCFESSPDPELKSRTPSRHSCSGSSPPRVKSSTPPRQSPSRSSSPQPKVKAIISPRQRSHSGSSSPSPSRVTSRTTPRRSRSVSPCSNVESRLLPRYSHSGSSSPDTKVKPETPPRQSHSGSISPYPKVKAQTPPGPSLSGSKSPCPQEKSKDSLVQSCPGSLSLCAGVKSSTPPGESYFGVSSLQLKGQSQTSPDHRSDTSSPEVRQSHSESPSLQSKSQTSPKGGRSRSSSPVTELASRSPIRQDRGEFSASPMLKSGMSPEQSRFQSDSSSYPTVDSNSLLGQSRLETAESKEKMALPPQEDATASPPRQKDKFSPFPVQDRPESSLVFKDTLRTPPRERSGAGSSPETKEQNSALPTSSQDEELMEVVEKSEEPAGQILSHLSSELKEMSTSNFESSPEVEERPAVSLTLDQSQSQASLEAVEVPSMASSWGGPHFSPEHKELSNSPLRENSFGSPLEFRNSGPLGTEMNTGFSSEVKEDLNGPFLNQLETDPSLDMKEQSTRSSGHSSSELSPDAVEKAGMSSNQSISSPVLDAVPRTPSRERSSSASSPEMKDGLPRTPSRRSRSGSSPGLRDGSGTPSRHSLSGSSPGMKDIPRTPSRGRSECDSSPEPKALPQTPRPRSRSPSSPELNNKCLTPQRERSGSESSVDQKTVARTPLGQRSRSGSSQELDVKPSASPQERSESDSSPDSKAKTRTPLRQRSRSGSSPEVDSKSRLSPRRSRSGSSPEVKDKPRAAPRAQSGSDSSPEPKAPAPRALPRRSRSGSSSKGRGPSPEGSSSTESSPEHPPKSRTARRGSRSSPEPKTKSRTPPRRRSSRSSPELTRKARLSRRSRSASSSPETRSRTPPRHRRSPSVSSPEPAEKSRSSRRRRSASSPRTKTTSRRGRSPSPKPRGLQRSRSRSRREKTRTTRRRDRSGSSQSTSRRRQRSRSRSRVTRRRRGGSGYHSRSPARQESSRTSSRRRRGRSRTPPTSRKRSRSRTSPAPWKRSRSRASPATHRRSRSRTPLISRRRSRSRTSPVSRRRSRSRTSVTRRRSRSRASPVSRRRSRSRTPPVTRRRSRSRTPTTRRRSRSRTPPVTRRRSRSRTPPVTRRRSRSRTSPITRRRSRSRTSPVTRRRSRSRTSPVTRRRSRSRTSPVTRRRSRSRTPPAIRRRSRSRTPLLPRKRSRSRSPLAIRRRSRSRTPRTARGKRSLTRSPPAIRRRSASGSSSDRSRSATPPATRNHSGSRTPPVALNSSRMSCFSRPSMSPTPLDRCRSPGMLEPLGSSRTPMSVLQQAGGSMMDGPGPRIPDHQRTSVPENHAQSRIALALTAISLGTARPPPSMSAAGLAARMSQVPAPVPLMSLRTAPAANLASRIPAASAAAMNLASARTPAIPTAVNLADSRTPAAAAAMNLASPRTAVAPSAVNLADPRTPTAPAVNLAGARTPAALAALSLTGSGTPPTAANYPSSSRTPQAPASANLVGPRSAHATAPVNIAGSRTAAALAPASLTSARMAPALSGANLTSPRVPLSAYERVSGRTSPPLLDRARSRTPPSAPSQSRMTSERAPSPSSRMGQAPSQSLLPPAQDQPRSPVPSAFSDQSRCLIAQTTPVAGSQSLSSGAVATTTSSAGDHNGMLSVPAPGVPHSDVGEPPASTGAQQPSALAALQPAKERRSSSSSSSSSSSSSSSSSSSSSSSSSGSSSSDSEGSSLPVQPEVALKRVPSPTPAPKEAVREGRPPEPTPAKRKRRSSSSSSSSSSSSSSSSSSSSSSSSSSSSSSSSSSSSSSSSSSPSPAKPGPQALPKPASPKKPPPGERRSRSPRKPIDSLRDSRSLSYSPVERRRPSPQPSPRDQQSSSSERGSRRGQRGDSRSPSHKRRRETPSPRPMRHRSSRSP

No constants are given. Whether binding was seen depends on the method and setting. In cells and extracts the contact can be indirect. Here binding means that the protein was enriched with, or labelled near, the bait; the list need not be complete.

The chains are these.
B1: KSHV ORF6 (protein, UniProt Q2HRD3 1-1132)
chain: MALKGPQTLEENIGSAAPTGPCGYLYAYVTHNFPIGEASLLGNGYPEAKVFSLPLLHGLTVESDFPLNVKAVHKKIDATTASVKLTSYHREAIVFHNTHLFQPIFQGKGLEKLCRESRELFGFSTFVEQQHKGTLWSPEACPQLPCANEIFMAVIVTEGFKERLYGGKLVPVPSQTTPVHIGEHQAFKIPLYDEDLFGPSRAQELCRFYNPDISRYLHDSIFTGIAQALRVKDVSTVIQASERQFVHDQYKIPKLVQAKDFPQCASRGTDGSTLMVIDSLVAELGMSYGLSFIEGPQDSCEVLNYDTWPIFENCETPDARLRALEVWHAEQALHIGAQLFAANSVLYLTRVAKLPQKNQRGDANMYNSFYLQHGLGYLSEATVKENGASAFKGVPVSALDGSSYTLQHLAYASSFSPHLLARMCYYLQFLPHHKNTNSQSYNVVDYVGTAAPSQMCDLCQGQCPAVCINTLFYRMKDRFPPVLSNVKRDPYVITGTAGTYNDLEILGNFATFREREEEGNPVEDAPKYTYWQLCQNITEKLASMGISEGGDALRTLIVDIPSFVKVFKGIDSTVEAELLKFINCMIKNNYNFRENIKSVHHILQFACNVYWQAPCPVFLTLYYKSLLTVIQDICLTSCMMYEQDNPAVGIVPSEWLKMHFQTMWTNFKGACFDKGAITGGELKIVHQSMFCDLFDTDAAIGGMFAPARMQVRIARAMLMVPKTIKIKNRIIFSNSTGAESIQAGFMKPASQRDSYIVGGPYMKFLNALHKTLFPSTKTSALYLWHKIGQTTKNPILPGVSGEHLTELCNYVKASSQAFEEINVLDLVPDTLTSYAKIKLNSSILRACGQTQFYATTLSCLSPVTQLVPAEEYPHVLGPVGLSSPDEYRVKVAGRSVTIVQSTLKQAVSTNGRLRPIITVPLVVNKYTGSNGNTNVFHCANLGYFSGRGVDRNLRPESVPFKKNNVSSMLRKRHVIMTPLVDRLVKRIVGINSGEFEAEAVKRSVQNVLEDRDNPNLPKTVVLELVKHLGSSCASLTEEDVIYYLGPYAVLGDEVLSLLSTVGQAGVPWTAEGVASVIQDIIDDCELQFVGPEEPCLIQGQSVVEELFPSPGVPSLTVGKKRKIASLLSDLDL
B2: KSHV K8α (protein, UniProt Q2HR82 1-286)
chain: MPRMKDIPTKSSPGTDNSEKDEAVIEEDLSLNGQPFFTDNTDGGENEVSWTSSLLSTYVGCQPPAIPVCETVIDLTAPSQSGAPGDEHLPCSLNAETKFHIPDPSWTLSHTPPRGPHISQQLPTRRSKRRLHRKFEEERLCTKAKQGAGRPVPASVVKVGNITPHYGEELTRGDAVPAAPITPPYPRVQRPAQPTHVLFSPVFVSLKAEVCDQSHSPTRKQGRYGRVSSKAYTRQLQQALEEKDAQLCFLAARLEAHKEQIIFLRDMLMRMCQQPASPTDAPLPPC

This assay concerns the target serine/arginine repetitive matrix 2 (SRRM2) (human (endogenous in iSLK)) (UniProt Q9UQ35). The experiment in a line: affinity purification with mass spectrometry.
With “KSHV replication and transcription activator (RTA) (from UniProt F5HCV3 1-691)”, the binding entry is reported as “binds”.

On to B1, for which the binding entry is “binds”.

With B2, the binding result is recorded as “binds”.
